Some of the results follow.
These sequences were tested against OsWRKY34 (Oryza sativa, UniProt Q0JBA9 1-250) (assay: protein-binding microarray (RPBM); PBS, 2% BSA, 51.3 ng/ul salmon testes DNA, 50 uM zinc acetate, 200 nM TF, 25 C, 1 h; high values mean tight binding). Details: protein: recombinant; tags: N-terminal polyhistidine and DsRed monomer fusion (pET32a); label: CyDye5-dUTP incorporated in the synthesized complementary strand; 3' TTTTT single-stranded linker to array surface; dsDNA, one strand shown.
Outline: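 The binding signal for each feature is its fluorescence intensity in arbitrary units. An Axon 4000B scanner was used to read a custom Agilent array that had been made double-stranded with Cy5-dUTP primer extension, blocked with 2% BSA, incubated at 25 °C for 1 h with 200 nM protein in PBS, 2% BSA, salmon testes DNA and 50 µM zinc acetate, and washed. The protein was an N-terminal polyhistidine–DsRed transcription factor fusion from E. coli BL21-CodonPlus, purified on Ni–NTA.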

Amino acid sequences for entries named in this document (tags omitted).
UniProt Q0JBA9, entry or part of it: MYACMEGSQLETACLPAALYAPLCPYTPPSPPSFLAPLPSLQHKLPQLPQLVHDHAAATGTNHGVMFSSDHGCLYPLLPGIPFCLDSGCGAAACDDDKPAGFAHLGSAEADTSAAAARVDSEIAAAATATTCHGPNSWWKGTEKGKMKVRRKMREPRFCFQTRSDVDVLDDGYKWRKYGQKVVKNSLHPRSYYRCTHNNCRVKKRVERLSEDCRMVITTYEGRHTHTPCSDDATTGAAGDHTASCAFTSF

Sequence | binding signal
TTCGTATTACTGCTTGTACTCGATATAAATTTCATAAAAACGGAGTCACCTAGTGCAG | 9400 fluorescence intensity (a.u.)
ACGCAGAATTCTGAGGTGGTTGTTTCTTGGATCGATCCTTCGGAGTCACCTAGTGCAG | 8180 fluorescence intensity (a.u.)
CCACTTAATTTTCCGAATCTATGGGCTTTGTTGTGCTATACGGAGTCACCTAGTGCAG | 9370 fluorescence intensity (a.u.)
GTACTTCCCACGGCCCATTTTGAAGCCATTAGGCCCAGAACGGAGTCACCTAGTGCAG | 8060 fluorescence intensity (a.u.)
TCGACCTTTTCAGCATTACTAGTTTACTACCTTTTCTTATCGGAGTCACCTAGTGCAG | 9620 fluorescence intensity (a.u.)
AGGCCATCATCACTTTAGTCTTATTTTCGTCACCATCATCCGGAGTCACCTAGTGCAG | 10300 fluorescence intensity (a.u.)
CAGCCGTCCGATCTGTTGATCCAACGACTCAAAAGCGATCCGGAGTCACCTAGTGCAG | 8400 fluorescence intensity (a.u.)
CCATATCATATTACTCCTACATGTGTACTACATTTATATTCGGAGTCACCTAGTGCAG | 9480 fluorescence intensity (a.u.)
TACATTTGACAAAACGCATGAGGACCTCATCATTGCTTAACGGAGTCACCTAGTGCAG | 8020 fluorescence intensity (a.u.)
GAGCGGTCAAACATATGCTAAAAAGTCAACGGCGTCAAACCGGAGTCACCTAGTGCAG | 15900 fluorescence intensity (a.u.)
TATATATATATATATATATATATATAATTCTAATGTCATACGGAGTCACCTAGTGCAG | 15500 fluorescence intensity (a.u.)
ACATCACGCTATATCTGCTAATCTGCTCTGCTCTGACACACGGAGTCACCTAGTGCAG | 10100 fluorescence intensity (a.u.)
ATGCCACGTAAGCGCCACATTTTTTAATTTTGTTTTTGTTCGGAGTCACCTAGTGCAG | 10500 fluorescence intensity (a.u.)
CCGCTGTTATTCCCTTTGTTGTTTTTTCTCAAGTAAATTTCGGAGTCACCTAGTGCAG | 13200 fluorescence intensity (a.u.)
TGACGACGATCGTCGTCATGTACCCCGGCGCGATCTTGACCGGAGTCACCTAGTGCAG | 8310 fluorescence intensity (a.u.)
TGTCATCTGAAAGTTATACTTCCATCTTTCATCTGTTATTCGGAGTCACCTAGTGCAG | 9030 fluorescence intensity (a.u.)
CGTCACAAGAGTCGAGCCAGCACACGGCAGCAAAGTTTTTCGGAGTCACCTAGTGCAG | 8730 fluorescence intensity (a.u.)
CTATCTCTTCCCAATTTCCCATCGCTATTTCCAGTCCGAGCGGAGTCACCTAGTGCAG | 8250 fluorescence intensity (a.u.)
GACCTCATCTTTTCGTTTATGCTTATACTTATCAGTCAAACGGAGTCACCTAGTGCAG | 10100 fluorescence intensity (a.u.)
ACCTATTTGATCCTATTTGGTTTGTTGTTATAGTTGTGACCGGAGTCACCTAGTGCAG | 10900 fluorescence intensity (a.u.)
CTCTTATTTTTCTCACTTTAAATTTTTTTTTCCTTTTATTCGGAGTCACCTAGTGCAG | 8340 fluorescence intensity (a.u.)

Sequence | binding signal
TGGCTATATACTACTCCGGATTTTGAGTTTTTCTTACAACCGGAGTCACCTAGTGCAG | 9860 fluorescence intensity (a.u.)
ACAAGCTGGTTGAATGGTGCTTATTTTGTGTGTATTTCTTCGGAGTCACCTAGTGCAG | 10500 fluorescence intensity (a.u.)
CTTGACTTGTTCTGTTACTCACAGCTAATTAAGCAATTTACGGAGTCACCTAGTGCAG | 9080 fluorescence intensity (a.u.)
TCACGTGCACGCGCCCTCCCTCGTTGTCCCATTCTGGGCTCGGAGTCACCTAGTGCAG | 8200 fluorescence intensity (a.u.)
TAACGGCTAATTTGGTTCGGGTTTTTGTGCTTGGTGGTGGCGGAGTCACCTAGTGCAG | 8700 fluorescence intensity (a.u.)
GTTTCTGCCTTTCTGGTATTTGGAGCAAAACTTTTTCTGCCGGAGTCACCTAGTGCAG | 8240 fluorescence intensity (a.u.)
ACTTCATCTTTGATTAGATGCTTCCTGAAGGTGCTGTTTCCGGAGTCACCTAGTGCAG | 8610 fluorescence intensity (a.u.)
AGCAAGGGTCACTTCTTTGTACTATCTTGACCTATCAAGCCGGAGTCACCTAGTGCAG | 8140 fluorescence intensity (a.u.)
TTCGAAATATTTGACACCGTTGACTTTTTAGCACATGTTTCGGAGTCACCTAGTGCAG | 30000 fluorescence intensity (a.u.)
CCAGCGAGCAGTGTTACTCTGTTTTTCATGAAAGTACTTTCGGAGTCACCTAGTGCAG | 9010 fluorescence intensity (a.u.)
CGTGGCACCTCACCAGCTCTCACCCTGCTATCTCCATCTCCGGAGTCACCTAGTGCAG | 9380 fluorescence intensity (a.u.)
AACTCAATTCCTGCGTTTCCGTGTCCAACGTTTCACCGTCCGGAGTCACCTAGTGCAG | 8780 fluorescence intensity (a.u.)
TAATGTCCCTATTTTGTTATAGTGTTCCTCCAATAATCTGCGGAGTCACCTAGTGCAG | 8290 fluorescence intensity (a.u.)
CTATTTTTTAACTGGTTCTCCACTATTATGTATGCAGTTTCGGAGTCACCTAGTGCAG | 8120 fluorescence intensity (a.u.)
CGTGTGCCACCCGCTTGCCCCTTCACCGCGCCACACGTACCGGAGTCACCTAGTGCAG | 8440 fluorescence intensity (a.u.)
ACTCCATTTGCTACATGCACTTGTCACGCCACTACTACTCCGGAGTCACCTAGTGCAG | 12000 fluorescence intensity (a.u.)
ATCTATCTACTCCTGTTCTTTCGGAGCGACGTCCTCACCACGGAGTCACCTAGTGCAG | 10500 fluorescence intensity (a.u.)
ACTCGACTCGACTCGATTCCGCCCACTTGTATATCTCCCGCGGAGTCACCTAGTGCAG | 8730 fluorescence intensity (a.u.)
TTATATGGCCATATATCCCGTCCGTTCACAATATATCTCACGGAGTCACCTAGTGCAG | 8510 fluorescence intensity (a.u.)
GCCCGCTGCTCTGCTCTCTCATCTTTTATCTCACTAAAATCGGAGTCACCTAGTGCAG | 8960 fluorescence intensity (a.u.)
ACATACACACACCACCACCAACATAGCTTCTTTTGTCACTCGGAGTCACCTAGTGCAG | 11000 fluorescence intensity (a.u.)

Copied from the list:
Entry for TAATGTCCCTATTTTGTTATAGTGTTCCTCCAATAATCTGCGGAGTCACCTAGTGCAG under binding signal: 8290 fluorescence intensity (a.u.)
Entry for CCAGCGAGCAGTGTTACTCTGTTTTTCATGAAAGTACTTTCGGAGTCACCTAGTGCAG under binding signal: 9010 fluorescence intensity (a.u.)
Entry for TGGCTATATACTACTCCGGATTTTGAGTTTTTCTTACAACCGGAGTCACCTAGTGCAG under binding signal: 9860 fluorescence intensity (a.u.)

Source: publication PMC7819943, “Rice protein-binding microarrays: a tool to detect cis-acting elements near promoter regions in rice”
